Reference: the supplement of paper PMC10849652
Some of the results follow.

Amino acid sequences for entries named in this document (tags omitted). A change or cut given only in a name is not applied to a line headed by its entry.
UniProt Q8WX92, whole entry, looked up: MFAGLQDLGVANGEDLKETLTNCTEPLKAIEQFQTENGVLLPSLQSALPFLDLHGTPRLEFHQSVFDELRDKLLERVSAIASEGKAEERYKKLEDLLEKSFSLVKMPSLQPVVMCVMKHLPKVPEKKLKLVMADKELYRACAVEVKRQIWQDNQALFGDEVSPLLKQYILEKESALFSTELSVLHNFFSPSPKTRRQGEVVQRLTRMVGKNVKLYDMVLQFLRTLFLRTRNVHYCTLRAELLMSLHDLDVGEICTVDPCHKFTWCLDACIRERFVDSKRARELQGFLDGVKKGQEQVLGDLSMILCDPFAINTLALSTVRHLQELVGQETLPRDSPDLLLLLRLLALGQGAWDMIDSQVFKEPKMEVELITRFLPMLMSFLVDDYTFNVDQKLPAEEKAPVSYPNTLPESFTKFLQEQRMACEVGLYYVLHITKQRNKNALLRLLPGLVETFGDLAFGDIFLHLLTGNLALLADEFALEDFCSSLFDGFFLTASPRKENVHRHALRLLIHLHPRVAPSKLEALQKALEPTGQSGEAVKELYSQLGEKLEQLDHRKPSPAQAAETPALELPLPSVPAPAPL
UniProt P15559, whole entry, looked up: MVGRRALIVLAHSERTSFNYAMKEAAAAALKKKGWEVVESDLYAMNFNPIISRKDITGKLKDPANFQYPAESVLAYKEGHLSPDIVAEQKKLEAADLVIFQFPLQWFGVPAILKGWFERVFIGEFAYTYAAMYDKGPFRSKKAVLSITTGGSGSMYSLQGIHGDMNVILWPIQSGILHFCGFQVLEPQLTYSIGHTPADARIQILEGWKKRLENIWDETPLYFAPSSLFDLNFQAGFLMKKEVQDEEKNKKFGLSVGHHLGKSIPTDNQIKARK
UniProt Q12986: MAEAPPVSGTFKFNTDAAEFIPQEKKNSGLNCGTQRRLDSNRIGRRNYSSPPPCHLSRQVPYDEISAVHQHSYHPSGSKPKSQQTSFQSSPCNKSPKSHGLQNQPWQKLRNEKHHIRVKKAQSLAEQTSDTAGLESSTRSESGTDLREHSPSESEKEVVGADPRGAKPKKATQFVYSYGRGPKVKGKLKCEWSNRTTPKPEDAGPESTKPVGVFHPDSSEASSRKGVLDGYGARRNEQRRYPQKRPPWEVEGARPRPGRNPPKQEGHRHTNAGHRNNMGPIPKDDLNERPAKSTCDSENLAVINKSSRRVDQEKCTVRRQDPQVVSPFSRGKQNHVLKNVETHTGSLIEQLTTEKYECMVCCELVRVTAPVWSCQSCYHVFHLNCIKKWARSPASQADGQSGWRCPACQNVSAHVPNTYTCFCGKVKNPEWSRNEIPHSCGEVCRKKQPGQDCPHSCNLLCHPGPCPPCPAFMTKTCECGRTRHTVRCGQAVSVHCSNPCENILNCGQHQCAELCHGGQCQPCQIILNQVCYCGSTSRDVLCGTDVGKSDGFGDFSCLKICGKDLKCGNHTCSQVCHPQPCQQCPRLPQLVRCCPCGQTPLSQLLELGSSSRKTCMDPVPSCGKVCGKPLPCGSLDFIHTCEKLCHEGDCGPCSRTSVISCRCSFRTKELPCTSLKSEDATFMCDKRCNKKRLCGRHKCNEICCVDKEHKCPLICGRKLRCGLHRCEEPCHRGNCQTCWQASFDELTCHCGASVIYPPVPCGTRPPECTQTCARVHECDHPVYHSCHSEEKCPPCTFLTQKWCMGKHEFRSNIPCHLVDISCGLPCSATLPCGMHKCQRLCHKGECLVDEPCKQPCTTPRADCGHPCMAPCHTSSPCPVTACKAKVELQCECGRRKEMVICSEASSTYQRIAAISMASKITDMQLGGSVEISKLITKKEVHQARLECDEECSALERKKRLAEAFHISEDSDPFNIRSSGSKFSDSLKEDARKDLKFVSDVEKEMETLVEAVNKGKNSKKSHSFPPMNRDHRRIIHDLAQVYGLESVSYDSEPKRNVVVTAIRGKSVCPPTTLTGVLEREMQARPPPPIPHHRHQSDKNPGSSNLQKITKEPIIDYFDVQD
UniProt O75323: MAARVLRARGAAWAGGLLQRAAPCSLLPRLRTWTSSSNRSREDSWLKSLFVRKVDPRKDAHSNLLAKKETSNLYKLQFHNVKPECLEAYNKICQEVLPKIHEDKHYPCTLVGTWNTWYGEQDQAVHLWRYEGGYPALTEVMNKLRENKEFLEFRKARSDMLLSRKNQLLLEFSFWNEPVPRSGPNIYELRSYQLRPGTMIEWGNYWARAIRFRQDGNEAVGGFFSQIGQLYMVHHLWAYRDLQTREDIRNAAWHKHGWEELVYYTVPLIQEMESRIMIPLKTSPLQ
UniProt Q13469: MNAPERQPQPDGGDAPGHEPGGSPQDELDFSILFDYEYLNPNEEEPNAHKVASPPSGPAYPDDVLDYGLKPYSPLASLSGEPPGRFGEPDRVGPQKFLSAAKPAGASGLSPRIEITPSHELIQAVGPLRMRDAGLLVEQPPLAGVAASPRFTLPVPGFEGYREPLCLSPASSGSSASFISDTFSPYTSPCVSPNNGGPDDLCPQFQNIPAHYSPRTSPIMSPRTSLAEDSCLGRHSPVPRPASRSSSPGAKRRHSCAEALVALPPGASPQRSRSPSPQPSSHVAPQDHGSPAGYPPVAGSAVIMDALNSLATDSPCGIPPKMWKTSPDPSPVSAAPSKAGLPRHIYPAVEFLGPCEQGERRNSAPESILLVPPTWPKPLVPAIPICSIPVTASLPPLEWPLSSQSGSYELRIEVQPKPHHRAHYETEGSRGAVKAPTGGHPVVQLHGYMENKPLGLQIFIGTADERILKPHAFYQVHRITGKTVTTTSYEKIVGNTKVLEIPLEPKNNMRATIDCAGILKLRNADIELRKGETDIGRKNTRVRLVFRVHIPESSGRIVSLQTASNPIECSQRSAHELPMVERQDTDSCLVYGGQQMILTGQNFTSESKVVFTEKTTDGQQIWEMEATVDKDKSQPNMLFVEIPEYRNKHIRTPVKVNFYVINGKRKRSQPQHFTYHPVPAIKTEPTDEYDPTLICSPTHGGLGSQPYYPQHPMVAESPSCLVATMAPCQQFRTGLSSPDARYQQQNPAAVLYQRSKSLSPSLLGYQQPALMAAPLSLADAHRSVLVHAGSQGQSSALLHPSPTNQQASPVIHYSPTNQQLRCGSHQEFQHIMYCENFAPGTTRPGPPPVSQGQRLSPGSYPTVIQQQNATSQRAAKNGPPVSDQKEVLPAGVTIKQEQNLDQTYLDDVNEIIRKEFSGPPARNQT
UniProt Q9Y221: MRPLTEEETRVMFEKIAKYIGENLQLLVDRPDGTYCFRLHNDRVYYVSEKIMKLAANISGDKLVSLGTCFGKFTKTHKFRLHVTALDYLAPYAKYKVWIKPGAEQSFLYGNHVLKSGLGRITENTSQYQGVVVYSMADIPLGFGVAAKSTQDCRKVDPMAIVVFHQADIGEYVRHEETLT
UniProt P13056: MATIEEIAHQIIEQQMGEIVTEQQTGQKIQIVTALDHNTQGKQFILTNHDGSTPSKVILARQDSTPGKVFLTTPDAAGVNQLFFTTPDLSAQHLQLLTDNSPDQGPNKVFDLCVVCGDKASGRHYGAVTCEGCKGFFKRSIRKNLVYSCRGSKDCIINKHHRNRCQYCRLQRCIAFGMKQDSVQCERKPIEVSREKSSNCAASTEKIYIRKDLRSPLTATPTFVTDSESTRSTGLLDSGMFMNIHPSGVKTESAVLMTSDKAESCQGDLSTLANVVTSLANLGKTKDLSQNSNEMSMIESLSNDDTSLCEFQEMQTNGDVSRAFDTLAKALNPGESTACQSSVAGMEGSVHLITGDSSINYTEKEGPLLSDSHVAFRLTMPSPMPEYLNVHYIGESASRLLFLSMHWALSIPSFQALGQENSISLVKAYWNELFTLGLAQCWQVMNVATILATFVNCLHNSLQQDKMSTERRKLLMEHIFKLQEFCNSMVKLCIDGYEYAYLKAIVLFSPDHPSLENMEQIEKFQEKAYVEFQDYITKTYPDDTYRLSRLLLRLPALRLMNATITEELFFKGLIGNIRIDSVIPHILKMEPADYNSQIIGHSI
UniProt Q14934: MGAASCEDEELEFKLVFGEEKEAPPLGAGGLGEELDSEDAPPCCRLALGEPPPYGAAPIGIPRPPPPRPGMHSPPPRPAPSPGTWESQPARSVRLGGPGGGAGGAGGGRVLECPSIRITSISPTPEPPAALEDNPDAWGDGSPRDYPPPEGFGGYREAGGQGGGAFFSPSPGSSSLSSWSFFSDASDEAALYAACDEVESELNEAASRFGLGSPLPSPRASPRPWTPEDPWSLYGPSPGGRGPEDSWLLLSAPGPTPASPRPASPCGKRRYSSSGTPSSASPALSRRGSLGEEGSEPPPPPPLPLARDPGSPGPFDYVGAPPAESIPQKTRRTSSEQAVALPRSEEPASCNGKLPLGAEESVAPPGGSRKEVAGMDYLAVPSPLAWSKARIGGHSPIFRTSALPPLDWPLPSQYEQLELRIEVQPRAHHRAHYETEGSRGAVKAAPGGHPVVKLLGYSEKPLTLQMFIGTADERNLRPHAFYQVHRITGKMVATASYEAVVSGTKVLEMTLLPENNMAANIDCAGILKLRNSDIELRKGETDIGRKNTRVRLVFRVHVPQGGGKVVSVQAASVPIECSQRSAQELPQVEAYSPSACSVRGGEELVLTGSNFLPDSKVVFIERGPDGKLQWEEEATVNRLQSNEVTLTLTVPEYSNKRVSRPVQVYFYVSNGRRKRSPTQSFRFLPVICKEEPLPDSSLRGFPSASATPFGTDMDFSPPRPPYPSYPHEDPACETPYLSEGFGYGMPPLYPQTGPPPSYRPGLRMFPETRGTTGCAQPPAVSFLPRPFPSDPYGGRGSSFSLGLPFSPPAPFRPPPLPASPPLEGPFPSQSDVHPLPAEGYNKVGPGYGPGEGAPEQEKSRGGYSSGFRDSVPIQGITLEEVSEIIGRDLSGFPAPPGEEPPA
UniProt Q9BS92: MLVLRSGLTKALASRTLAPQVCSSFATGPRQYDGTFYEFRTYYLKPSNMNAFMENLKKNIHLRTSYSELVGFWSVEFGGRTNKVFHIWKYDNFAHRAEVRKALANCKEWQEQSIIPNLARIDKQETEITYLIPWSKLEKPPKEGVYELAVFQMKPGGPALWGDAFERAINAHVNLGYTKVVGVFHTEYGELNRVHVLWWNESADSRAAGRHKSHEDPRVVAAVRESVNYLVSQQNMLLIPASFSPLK
UniProt Q9UHC9: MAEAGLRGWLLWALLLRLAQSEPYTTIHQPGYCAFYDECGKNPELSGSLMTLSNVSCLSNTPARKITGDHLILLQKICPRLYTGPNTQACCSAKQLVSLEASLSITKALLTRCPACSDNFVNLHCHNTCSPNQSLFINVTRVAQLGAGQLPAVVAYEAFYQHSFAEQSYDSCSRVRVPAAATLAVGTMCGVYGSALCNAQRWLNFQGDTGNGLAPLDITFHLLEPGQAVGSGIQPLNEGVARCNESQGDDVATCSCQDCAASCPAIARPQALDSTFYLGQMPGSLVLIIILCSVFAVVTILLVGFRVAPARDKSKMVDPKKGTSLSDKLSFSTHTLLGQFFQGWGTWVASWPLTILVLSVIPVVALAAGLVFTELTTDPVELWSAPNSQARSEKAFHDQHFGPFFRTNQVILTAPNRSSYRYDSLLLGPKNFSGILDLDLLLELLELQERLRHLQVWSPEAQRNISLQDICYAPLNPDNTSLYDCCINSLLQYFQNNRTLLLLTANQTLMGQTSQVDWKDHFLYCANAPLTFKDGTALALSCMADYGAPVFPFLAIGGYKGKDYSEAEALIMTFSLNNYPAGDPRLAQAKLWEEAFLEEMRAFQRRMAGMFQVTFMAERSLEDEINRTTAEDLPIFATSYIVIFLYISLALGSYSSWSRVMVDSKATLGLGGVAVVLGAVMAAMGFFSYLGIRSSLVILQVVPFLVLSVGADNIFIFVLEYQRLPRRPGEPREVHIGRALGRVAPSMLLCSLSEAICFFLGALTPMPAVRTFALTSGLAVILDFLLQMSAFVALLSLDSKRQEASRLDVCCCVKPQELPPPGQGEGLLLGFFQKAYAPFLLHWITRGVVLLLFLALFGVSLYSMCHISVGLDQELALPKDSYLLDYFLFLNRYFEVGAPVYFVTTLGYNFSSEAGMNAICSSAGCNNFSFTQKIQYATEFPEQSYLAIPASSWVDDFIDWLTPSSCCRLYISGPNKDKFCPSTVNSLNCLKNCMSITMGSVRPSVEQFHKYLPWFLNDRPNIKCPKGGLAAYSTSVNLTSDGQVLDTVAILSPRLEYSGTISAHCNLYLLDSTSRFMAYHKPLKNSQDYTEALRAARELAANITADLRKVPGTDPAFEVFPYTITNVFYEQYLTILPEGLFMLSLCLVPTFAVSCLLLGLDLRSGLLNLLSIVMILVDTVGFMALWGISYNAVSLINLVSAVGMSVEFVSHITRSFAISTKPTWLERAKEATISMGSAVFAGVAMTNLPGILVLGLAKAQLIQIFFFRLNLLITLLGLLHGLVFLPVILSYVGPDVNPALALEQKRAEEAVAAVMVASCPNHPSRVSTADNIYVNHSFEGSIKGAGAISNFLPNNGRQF

What was measured:
Experiment in all cases: log2 fold change, soluble protein after heating vs DMSO (PISA); higher = thermal stabilisation; K562 cells, 10 uM, 30 min; active = over 0.2 and 3.5 SD of the protein, either way, in both replicates (recomputed)
[1] = compound: COC1=CC=C(C=C1)CN2C=CC3=C2C=C(C=C3)C(=O)NO
Outline: (§1)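 K562 cells at 2×10^6 cells/mL were given 10 μM compound for 30 min. Aliquots then went through 3 min of heating across 48°C-58°C, were pooled, and were extracted in PBS with 0.5% NP-40 at 4°C, and the supernatant after 21,000xg for 90 min was quantified by TMTpro 16plex LC-MS/MS with channel sums equalised. Thermal stability relative to control samples, from duplicates, is given as log2 fold change.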

filanesib = compound: CON(C)C(=O)N1N=C(c2cc(F)ccc2F)S[C@@]1(CCCN)c1ccccc1 [filanesib]
Outline: as §1

zotarolimus = compound: CO[C@H]1C[C@@H]2CC[C@@H](C)[C@@](O)(O2)C(=O)C(=O)N2CCCC[C@H]2C(=O)O[C@H]([C@H](C)C[C@@H]2CC[C@H](n3cnnn3)[C@H](OC)C2)CC(=O)[C@H](C)/C=C(\C)[C@@H](O)[C@@H](OC)C(=O)[C@H](C)C[C@H](C)/C=C/C=C/C=C/1C [zotarolimus]
Outline: as §1

idasanutlin = compound: COc1cc(C(=O)O)ccc1NC(=O)[C@@H]1N[C@@H](CC(C)(C)C)[C@](C#N)(c2ccc(Cl)cc2F)[C@H]1c1cccc(Cl)c1F [idasanutlin]
Outline: as §1

alisertib = compound: COc1cc(Nc2ncc3c(n2)-c2ccc(Cl)cc2C(c2c(F)cccc2OC)=NC3)ccc1C(=O)O [alisertib]
Outline: as §1

[2] = compound: COc1cc2nc(-c3cc(F)ccc3O)nc(N[C@@H]3CNC[C@H]3C(C)(C)O)c2cc1OC
Outline: as §1

gefitinib = compound: COc1cc2ncnc(Nc3ccc(F)c(Cl)c3)c2cc1OCCCN1CCOCC1 [gefitinib]
Outline: as §1

[3] = compound: COc1cccc2cc(-c3nc([C@H]4CC[C@H](C(=O)O)CC4)n4ncnc(N)c34)[nH]c12
Outline: as §1

lapatinib = compound: CS(=O)(=O)CCNCc1ccc(-c2ccc3ncnc(Nc4ccc(OCc5cccc(F)c5)c(Cl)c4)c3c2)o1 [lapatinib]
Outline: as §1

pictilisib = compound: CS(=O)(=O)N1CCN(Cc2cc3nc(-c4cccc5[nH]ncc45)nc(N4CCOCC4)c3s2)CC1 [pictilisib]
Outline: as §1

[4] = compound: CS(=O)(=O)c1ccc(-c2cnc(N)c(C(=O)Nc3ccccc3)n2)cc1
Outline: as §1

crizotinib = compound: C[C@@H](Oc1cc(-c2cnn(C3CCNCC3)c2)cnc1N)c1c(Cl)ccc(F)c1Cl [crizotinib]
Outline: as §1

[5] = compound: C[C@@H]1COCCN1C2=NC(=NC(=C2)C3(CC3)S(=O)(=O)C)C4=C5C=CNC5=CC=C4
Outline: as §1

[6] = compound: C[C@H](C1=CC=C(C=C1)C(=O)NC2=C3C=CNC3=NC=C2)N
Outline: as §1

gandotinib = compound: Cc1cc(Nc2cc(CN3CCOCC3)c3nc(C)c(Cc4ccc(Cl)cc4F)n3n2)n[nH]1 [gandotinib]
Outline: as §1

[7] = compound: Cc1cc(SCc2sc(-c3ccc(C(F)(F)F)cc3)nc2C)ccc1OCC(=O)O
Outline: as §1

doramapimod = compound: Cc1ccc(-n2nc(C(C)(C)C)cc2NC(=O)Nc2ccc(OCCN3CCOCC3)c3ccccc23)cc1 [doramapimod]
Outline: as §1

ispinesib = compound: Cc1ccc(C(=O)N(CCCN)[C@@H](c2nc3cc(Cl)ccc3c(=O)n2Cc2ccccc2)C(C)C)cc1 [ispinesib]
Outline: as §1

duvelisib = compound: C[C@H](Nc1ncnc2nc[nH]c12)c1cc2cccc(Cl)c2c(=O)n1-c1ccccc1 [duvelisib]
Outline: as §1

tozasertib = compound: Cc1cc(Nc2cc(N3CCN(C)CC3)nc(Sc3ccc(NC(=O)C4CC4)cc3)n2)n[nH]1 [tozasertib]
Outline: as §1

Measured: log2 fold change

NELFB isoform 2 (UniProt Q8WX92)
inactive: [1] 0.01 | filanesib 0.046 | zotarolimus 0.019 | idasanutlin -0.026 | alisertib -0.007 | [2] 0.085 | gefitinib -0.006 | [3] -0.02 | lapatinib -0.029 | pictilisib 0.141 | [4] 0.059 | crizotinib 0.019 | [5] 0.087 | [6] -0.08 | gandotinib -0.093 | [7] 0.086 | doramapimod -0.087 | ispinesib 0.042

NQO1 (UniProt P15559)
inactive: [1] 0.062 | filanesib -0.053 | zotarolimus 0.069 | idasanutlin -0.085 | alisertib -0.094 | [2] 0.011 | gefitinib -0.006 | [3] 0.001 | lapatinib -0.017 | pictilisib -0.006 | [4] 0.055 | crizotinib -0.004 | [5] 0.069 | [6] -0.06 | gandotinib -0.062 | [7] 0.152 | doramapimod -0.008 | ispinesib 0.05

NFXL1 (UniProt Q6ZNB6)
inactive: [1] 0.052 | filanesib 0.075 | zotarolimus 0.015 | idasanutlin 0.002 | alisertib -0.006 | [2] 0.092 | gefitinib -0.031 | [3] -0.017 | lapatinib -0.034 | pictilisib 0.002 | [4] -0.018 | crizotinib 0.082 | [5] -0.003 | [6] -0.057 | duvelisib 0.061 | gandotinib 0.074 | tozasertib 0.064 | [7] 0.019 | doramapimod -0.018 | ispinesib 0.032

NOSIP (UniProt Q9Y314)
inactive: [1] -0.069 | filanesib 0.143 | zotarolimus -0.018 | idasanutlin 0.029 | alisertib 0.166 | [2] 0.174 | gefitinib 0.156 | [3] -0.053 | lapatinib -0.046 | pictilisib -0.067 | [4] 0.108 | crizotinib 0.329 | [5] -0.08 | [6] -0.03 | gandotinib -0.118 | [7] 0.257 | doramapimod -0.113 | ispinesib 0.133

Quoted from the results shown (two entries):
NFXL1 (UniProt Q6ZNB6)
inactive: [1] 0.052 | filanesib 0.075 | zotarolimus 0.015 | idasanutlin 0.002 | alisertib -0.006 | [2] 0.092 | gefitinib -0.031 | [3] -0.017 | lapatinib -0.034 | pictilisib 0.002 | [4] -0.018 | crizotinib 0.082 | [5] -0.003 | [6] -0.057 | duvelisib 0.061 | gandotinib 0.074 | tozasertib 0.064 | [7] 0.019 | doramapimod -0.018 | ispinesib 0.032

NOSIP (UniProt Q9Y314)
inactive: [1] -0.069 | filanesib 0.143 | zotarolimus -0.018 | idasanutlin 0.029 | alisertib 0.166 | [2] 0.174 | gefitinib 0.156 | [3] -0.053 | lapatinib -0.046 | pictilisib -0.067 | [4] 0.108 | crizotinib 0.329 | [5] -0.08 | [6] -0.03 | gandotinib -0.118 | [7] 0.257 | doramapimod -0.113 | ispinesib 0.133

More records.

NOL11 (UniProt Q9H8H0)
inactive: [1] -0.029 | filanesib 0 | zotarolimus 0.005 | idasanutlin -0.046 | alisertib -0.017 | [2] 0.067 | gefitinib -0.008 | [3] 0.056 | lapatinib 0.005 | pictilisib 0.025 | [4] -0.036 | crizotinib 0.084 | [5] -0.017 | [6] -0.041 | gandotinib -0.061 | [7] -0.015 | doramapimod -0.005 | ispinesib 0.097

NFIA isoform 4 (UniProt Q12857)
inactive: [1] -0.004 | filanesib 0.06 | zotarolimus -0.04 | idasanutlin -0.017 | alisertib -0.072 | [2] -0.004 | gefitinib 0.023 | [3] 0.036 | lapatinib 0.003 | pictilisib 0.072 | [4] -0.054 | crizotinib -0.062 | [5] -0.012 | [6] 0.035 | duvelisib 0.054 | gandotinib 0.039 | tozasertib 0.008 | [7] -0.014 | doramapimod 0.043 | ispinesib 0.041

NFX1 (UniProt Q12986)
inactive: [1] -0.152 | filanesib 0.133 | zotarolimus -0.141 | idasanutlin 0.102 | alisertib 0.203 | [2] 0.079 | gefitinib 0.037 | [3] -0.012 | lapatinib 0.112 | pictilisib 0.004 | [4] -0.024 | crizotinib -0.232 | [5] -0.315 | [6] 0.09 | gandotinib 0.21 | [7] -0.164 | doramapimod 0.293 | ispinesib -0.202

NOB1 (UniProt Q9ULX3)
inactive: [1] 0.16 | filanesib 0.001 | zotarolimus 0.026 | idasanutlin 0.068 | alisertib -0.14 | [2] 0.044 | gefitinib 0.01 | [3] -0.13 | lapatinib 0.045 | pictilisib -0.042 | [4] 0.012 | crizotinib -0.142 | [5] -0.033 | [6] 0.15 | gandotinib 0.019 | [7] 0.113 | doramapimod 0 | ispinesib -0.038

NELFA (UniProt Q9H3P2)
inactive: [1] 0.031 | filanesib 0.035 | zotarolimus -0.084 | idasanutlin -0.117 | alisertib 0.092 | [2] 0.105 | gefitinib 0.36 | [3] 0.017 | lapatinib -0.079 | pictilisib 0.076 | [4] -0.01 | crizotinib 0.082 | [5] 0.198 | [6] -0.011 | gandotinib 0.004 | [7] 0.234 | doramapimod -0.014 | ispinesib -0.068

NME6 (UniProt O75414)
inactive: [1] 0.02 | filanesib -0.057 | zotarolimus -0.063 | idasanutlin -0.05 | alisertib -0.052 | [2] 0.011 | gefitinib 0.019 | [3] 0.022 | lapatinib -0.051 | pictilisib 0 | [4] 0.085 | crizotinib 0.166 | [5] 0.056 | [6] 0.008 | duvelisib 0.132 | gandotinib 0.033 | tozasertib 0.037 | [7] -0.013 | doramapimod 0 | ispinesib 0.147

NIPSNAP2 (UniProt O75323)
inactive: [1] 0.074 | filanesib -0.065 | zotarolimus 0.008 | idasanutlin -0.022 | alisertib 0.003 | [2] 0.007 | gefitinib 0.045 | [3] -0.038 | pictilisib 0.079 | [4] -0.014 | crizotinib 0.083 | [5] 0.068 | [6] -0.041 | gandotinib 0.057 | [7] 0.105 | doramapimod -0.106 | ispinesib 0.162
active: lapatinib 0.224

NFATC2 (UniProt Q13469)
inactive: [1] 0.015 | filanesib 0.161 | zotarolimus -0.084 | idasanutlin 0.058 | alisertib 0.147 | [2] -0.036 | gefitinib 0.031 | [3] -0.152 | lapatinib -0.001 | pictilisib -0.029 | [4] 0 | crizotinib -0.154 | [5] -0.175 | [6] 0 | gandotinib 0.048 | [7] 0.024 | doramapimod 0.027 | ispinesib -0.18

NIP7 (UniProt Q9Y221)
inactive: [1] 0.024 | filanesib 0.397 | zotarolimus 0.081 | idasanutlin 0.16 | alisertib -0.211 | [2] -0.004 | gefitinib 0.029 | [3] 0.009 | lapatinib 0.062 | pictilisib 0.018 | [4] 0.017 | crizotinib -0.134 | [5] -0.275 | [6] 0.367 | duvelisib -0.044 | gandotinib 0.096 | tozasertib 0 | [7] -0.018 | doramapimod 0.157 | ispinesib 0.136

NR2C1 (UniProt P13056)
inactive: [1] 0.413 | filanesib 0.081 | idasanutlin 0.057 | alisertib 0.01 | gefitinib 0.03 | [3] 0.058 | [4] 0.027 | crizotinib -0.217 | [5] 0.071 | doramapimod 0.015

NFATC4 isoform 2 (UniProt Q14934)
inactive: [1] -0.322 | filanesib 0.04 | zotarolimus -0.064 | idasanutlin -0.039 | alisertib 0.069 | [2] 0.031 | [3] 0.186 | lapatinib -0.26 | pictilisib 0.137 | [4] 0.001 | crizotinib -0.109 | [5] 0.059 | [6] 0.099 | duvelisib 0.186 | gandotinib -0.148 | tozasertib 0 | [7] -0.016 | doramapimod 0.063 | ispinesib -0.263

NSDHL (UniProt Q15738)
active: crizotinib 0.314 | doramapimod 0.22
inactive: [1] 0.006 | filanesib -0.11 | zotarolimus 0.04 | idasanutlin 0.208 | alisertib 0.033 | [2] -0.062 | gefitinib 0.021 | [3] 0 | lapatinib 0.185 | pictilisib 0.023 | [4] 0.04 | [5] 0.045 | [6] -0.105 | gandotinib 0.239 | [7] 0.058 | ispinesib -0.016

NIPSNAP3B (UniProt Q9BS92)
inactive: [1] -0.033 | filanesib -0.168 | zotarolimus 0.013 | idasanutlin 0.046 | alisertib -0.046 | [2] -0.071 | gefitinib -0.138 | [3] 0.009 | lapatinib -0.09 | pictilisib 0.002 | [4] 0.03 | crizotinib 0.053 | [6] 0.015 | gandotinib 0.082 | [7] 0.039 | doramapimod -0.102

NPC1L1 (UniProt Q9UHC9)
inactive: [1] -0.177 | filanesib -0.099 | zotarolimus -0.09 | idasanutlin -0.041 | alisertib -0.144 | [2] 0.079 | gefitinib 0.557 | [3] 0.106 | lapatinib -0.105 | [4] 0.002 | crizotinib -0.07 | [6] -0.044 | [7] -0.159 | doramapimod 0.033
